Laboratory results: PubChem BioAssay AID504804 (Drosophila RNAi Screening Center, 2011)
The screen tested about 19,000 reagents; this is a random part of those with a known target gene and a result. Of all reagents, 47 (0.25%) are marked active. 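Signals are raw, not normalised; exact z-scores behind calls not deposited; actives needed confirmation, so some wells reaching 2 SD are inactive.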 Unmarked entries are inactive. A plus sign joins genes that one reagent is predicted to hit.

Assay: 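Knock-downs shielding fly cells from apoptosis caused by DNA damage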 (primary screen)
Cells: Drosophila Kc cells
Reagent: long dsRNA against Drosophila genes, 0.5 µg dsRNA per well
Duration: 96 h (48 h knock-down, then 48 h drug)
Treatment: doxorubicin 5 µg/ml for 48 h, added 48 h after dsRNA
Measured: 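Viability measured as cellular ATP by luminescence after 48 h knock-down then 48 h doxorubicin at 5 µg/ml; unnormalised plate counts for each replicate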
Direction: raw ATP luminescence: higher = more viable cells, protection from doxorubicin
Rule for the call: 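z-score of 2 or more over plate mean in both duplicates, retained only when retests and separate dsRNAs confirm the protection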

target	dsRNA	SD above plate mean	raw ATP luminescence, replicate 1	raw ATP luminescence, replicate 2
CG16812	DRSC02519		99677	69593
ben (bendless)	DRSC21261		2.81e5	3.25e5
cyst (cysts)	DRSC02023		86053	56677
CG7914	DRSC20068		3.27e5	3.14e5
Nop56	DRSC14699		44787	38423
Ccdc39 (Coiled-coil domain containing protein 39)	DRSC12286		68847	57227
CG17752	DRSC15262		51490	70560
mRpL28 (mitochondrial ribosomal protein L28)	DRSC02724		23830	36627
CG31740	DRSC01619		2.95e5	2.87e5
CG14298	DRSC14777		26090	16560
Daao1 (D-amino acid oxidase 1)	DRSC06131		34780	68963
CG1648	DRSC06610		58697	50017
CG14153	DRSC10155		63380	62540
Vang (Van Gogh)	DRSC07570		42513	68113
CG5567	DRSC10517		25490	32373
CG3703	DRSC18172		51240	54060
CG3703	DRSC18173		61260	46880
CG3703	DRSC18643		72510	59280
AstA (Allatostatin A)	DRSC14634		77570	56490
Con (Connectin)	DRSC08652		47240	38463
CG14330	DRSC14809		84200	74890
ec (echinus)	DRSC17285		2.76e5	2.63e5
ec (echinus)	DRSC17286		2.47e5	2.59e5
ec (echinus)	DRSC18658		34430	41800
CG5854	DRSC15894		1.97e5	2.25e5
CG16957	DRSC02545		76130	74063
CG10035	DRSC14177		62020	55643
CG7564	DRSC10880		59493	50823
CG18788	DRSC02697		60417	70540
spel1 (spellchecker1)	DRSC03617		70247	74010
CG16756	DRSC18115		37460	49160
CG42493	DRSC05309		71647	95150
Sbf (SET domain binding factor)	DRSC16852		60653	29633
CG15147	DRSC02447		77607	87003
CG15147	DRSC02448	2 to 3 SD above plate mean (active)	93140	1.21e5
CG34046 (retired record)	DRSC14075		1.92e5	1.91e5
CG15643	DRSC19679		3.97e5	3.30e5
Gr98d (Gustatory receptor 98d)	DRSC14571		42210	51610
Syp (Syncrip)	DRSC13444		2.23e5	2.40e5
Syp (Syncrip)	DRSC15286		43633	51393
Qsox4 (Quiescin sulfhydryl oxidase 4)	DRSC14224		42343	42677
D19A	DRSC11133		28280	26510
FMRFa (FMRFamide)	DRSC07428		43110	85500
CG9338	DRSC03213		68897	50287
CG8726	DRSC07250		66250	60583
CG8236	DRSC16399		63810	62593
ND-39 (NADH dehydrogenase (ubiquinone) 39 kDa subunit)	DRSC11791		23790	28143
CG15480	DRSC02490		53893	78410
CG9812	DRSC04566		62000	50067
CG31205	DRSC13438		1.50e5	1.85e5
dmpd (dampened)	DRSC06092		59393	51797
CG9109	DRSC03139		1.04e5	67790
CG33791 + CG12105 + CG18170	DRSC08387		58243	55560
CG7017	DRSC10762		55600	57063
SppL (Signal peptide peptidase-like)	DRSC15228		62350	67710
Ipk1 (Inositol phosphate kinase 1)	DRSC04235		71917	59700
Ipk1 (Inositol phosphate kinase 1)	DRSC04236		67473	54040
Ipk1 (Inositol phosphate kinase 1)	DRSC04237		73567	54940
Hmt-1 (Heavy metal tolerance factor 1)	DRSC15555		51313	44887
CG8051	DRSC20077		3.50e5	2.90e5
mtSSB (mitochondrial single stranded DNA-binding protein)	DRSC17005		75680	84180
su(Hw) (suppressor of Hairy wing)	DRSC17074		64013	28653
Pcd (pterin-4a-carbinolamine dehydratase)	DRSC16785		47420	44970
SCCRO4 (Squamous cell carcinoma-related oncogene 4)	DRSC10671		65137	64697
CG32681	DRSC17646		2.19e5	2.22e5
CG8526	DRSC16438		56360	58483
CG31743 + CG34313	DRSC02781		1.06e5	73930
CG31743 + CG34313	DRSC02782		67987	73710
mmd (mind-meld)	DRSC19672		1.16e5	98580
mmd (mind-meld)	DRSC19673		3.14e5	2.69e5
mmd (mind-meld)	DRSC20161		3.91e5	2.92e5
Caper	DRSC02137		65910	42563
frj (farjavit)	DRSC03250		83650	74923
CG13053	DRSC09934		66773	62090
CG6340	DRSC19987		2.37e5	2.20e5
CG11382	DRSC18624		49460	38420
nSMase (neutral sphingomyelinase)	DRSC08237		40707	30270
CG18404	DRSC15323		35380	41390
GC1	DRSC15322		49300	37050
CG34160	DRSC01131		2.85e5	3.11e5
CG34167	DRSC01525		2.89e5	2.67e5
glo (glorund)	DRSC16145		64743	55513
l(2)34Fc (lethal (2) 34Fc)	DRSC01910		52877	64543
CG15717	DRSC19684		3.55e5	2.84e5
CG12343	DRSC06135		36423	77520
CG14693	DRSC14916		63687	69913
MED19 (Mediator complex subunit 19)	DRSC10516		25520	22653
Nprl3 (Nitrogen permease regulator-like 3)	DRSC11044		22960	21243
Esp (Epidermal stripes and patches)	DRSC16664		72440	52370
CG14696	DRSC14919		59363	47750
CG14926	DRSC02409		43000	50373
Lcp65Ag3 (Larval cuticle protein)	DRSC10345		89893	1.05e5
CG32026	DRSC08950		1.45e5	1.73e5
CG1394	DRSC19539		2.16e5	2.32e5
Pgls (6-phosphogluconolactonase)	DRSC19769		3.49e5	3.68e5
mei-9 (meiotic 9)	DRSC18792		43420	47690
H (Hairless)	DRSC16692		82720	83390
Yif1 (Yip1-interacting factor 1)	DRSC15817		46770	42390
CG13319	DRSC06356		2.36e5	2.41e5
Pdha (Pyruvate dehydrogenase E1 alpha subunit)	DRSC18413		39730	43620
CG15641	DRSC19677		3.52e5	3.16e5
CG32945	DRSC12014		74567	53760
CG15739	DRSC19705		3.18e5	2.98e5
CG3961	DRSC10390		18047	26997
CG3961	DRSC10391		44737	36140
Glys (Glycogen synthase)	DRSC16130		41940	17857
Argk1 (Arginine kinase 1)	DRSC08959		1.52e5	1.83e5
Argk1 (Arginine kinase 1)	DRSC09668		74170	79813
Argk1 (Arginine kinase 1)	DRSC10460		55953	34520

A few values from the entries so far.
CG14693 [DRSC14916], raw ATP luminescence, replicate 1 → 63687
Result for CG11382 [DRSC18624] under “raw ATP luminescence, replicate 2”: 38420
mmd (mind-meld) [DRSC19673], raw ATP luminescence, replicate 2 → 2.69e5
MED19 (Mediator complex subunit 19) [DRSC10516], raw ATP luminescence, replicate 2: 22653
frj (farjavit) [DRSC03250], raw ATP luminescence, replicate 2 = 74923
spel1 (spellchecker1) [DRSC03617], raw ATP luminescence, replicate 1 = 70247
